Laboratory results from the antibiotic and cytotoxicity screens of Wong et al. (2023).
For part of these data: Shown are results outside the selection of hits, which stands elsewhere. This is a selection; strong and weak results do not stand in their true shares.

Assays:
HSkMC = human skeletal muscle cells; assay: cytotoxicity call (relative viability < 0.9); conditions: 10 µM
HepG2 = assay: cytotoxicity call (relative viability < 0.9); conditions: 10 µM
S. aureus RN4220 = assay: growth inhibition call (relative growth <= 0.2); conditions: 50 µM

Compound | cytotoxicity call (HSkMC) | cytotoxicity call (HepG2) | growth inhibition call (S. aureus RN4220)
CN1CCN(CCCN2c3ccccc3Sc3ccc(Cl)cc32)CC1.O=S(=O)(O)CCS(=O)(=O)O | inactive | active | inactive
CCC(C)C(C(=O)OCC[N+](C)(CC)CC)c1ccccc1.[Br-] (stereo not given) | inactive | inactive | inactive
C[C@@H]1C[C@H](N)C[C@H](c2ccncc2NC(=O)c2ccc(F)c(-c3c(F)cccc3F)n2)C1 | inactive | inactive | inactive
Br.CN1C2CCC1CC(OC(=O)C(O)c1ccccc1)C2 (stereo not given) | inactive | inactive | inactive
CCOc1cc(NC(C)=O)ccc1C(=O)OC | inactive | inactive | inactive
